Measured values published in US20080268477A1, “Antibody Reactive Specifically to Age Derived from 3,4-Dge” (JMS CO., LTD., priority 2005, published 2008).

Tested on: 3,4-DGE-derived AGEs in the peritoneum
Assay: accumulation of 3,4-DGE-derived AGEs in peritoneum of model rat for peritoneal dialysis
Format: in vivo
Settings: intraperitoneal, twice/day, 30 days

SMILES: O=CC(=O)C=CC(O)CO (centres unmarked) [3,4-DGE, 3,4-dideoxyglucosone-3-ene]
- color development in parietal peritoneum (anti-3,4-DGE-AGE staining) (2 μM 3,4-DGE-containing dialysate): color development was observed
- color development in parietal peritoneum (anti-3,4-DGE-AGE staining) (58 μM 3,4-DGE-containing dialysate): stronger color development was observed
